Measurements reported in PubChem BioAssay AID602196 (INSERM, 2012).

Purpose: 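Genes whose knock-down alters cisplatin killing of lung cancer cells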
System: human A549 lung cancer cells
Knock-down reagent: siRNA pair against human genes
Timing: 48 h transfection before cisplatin; time from cisplatin to read-out not stated
Conditions: cisplatin at a dose killing half of control-siRNA cells; exact dose and duration not given
Detection: 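Shift in cisplatin death relative to control siRNA, from -50 (all cells die) to +50 (no cells die); siRNAs harmful on their own scored 0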
Direction: two-siRNA summed score (-2 to +2): higher = both siRNAs protect from cisplatin killing; -2 means both sensitise; mean protection from cisplatin (shift in death) and protection from cisplatin (shift in death), siRNA C and protection from cisplatin (shift in death), siRNA D: higher = protection from cisplatin killing
Active means: 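Each siRNA scores 0 if harmful alone by LDH or WST-1, otherwise +1 if it reduces and -1 if it increases cisplatin killing; a gene is active when both siRNAs agree (sum +2 or -2)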
Calls: active = both siRNAs shift cisplatin killing the same way; inactive = no consistent shift, or siRNA harmful alone
The whole screen tested about 23,000 reagents; this is a random part of them. 455 of all reagents (2%) were called active. 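Active includes both protection and sensitisation; some change values fall well beyond the stated -50 to +50 range.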 The numbers tell different reagents against one gene apart. Not stated in the record: the amount of reagent.

| target gene | reagent | two-siRNA summed score (-2 to +2) | mean protection from cisplatin (shift in death) (%) | protection from cisplatin (shift in death), siRNA C (%) | protection from cisplatin (shift in death), siRNA D (%) | outcome |
| --- | --- | --- | --- | --- | --- | --- |
| ARID3C | 1 | 0 | 11 | 16.2 | 5.9 | inactive |
| GJA10 | 1 | 0 | -9.8 | -10.4 | -9.3 | inactive |
| LOC388467 | 1 | 0 | 13.4 | 13 | 13.9 | inactive |
| ZGPAT | 1 | 0 | 11.1 | 9.8 | 12.4 | inactive |
| MGC40069 (retired record) | 1 | 1 | 10.9 | 18.3 | 3.5 | inactive |
| LOC285590 | 1 | 1 | 10.2 | 5 | 15.5 | inactive |
| MAP2K1P2 | 1 | 0 | 5 | -1.1 | 11.1 | inactive |
| LOC440075 | 1 | 0 | 2.8 | -6.2 | 11.8 | inactive |
| TASP1 | 1 | 0 | 3.4 | 9.9 | -3.1 | inactive |
| LRRC71 | 1 | 0 | 12.2 | 10.1 | 14.4 | inactive |
| CCDC126 | 1 | 0 | 3.3 | 9.5 | -2.8 | inactive |
| LOC442245 | 1 | 0 | -0.4 | 0.3 | -1 | inactive |
| TMSB4X | 1 | 0 | -6.3 | -11.7 | -0.8 | inactive |
| TMSB4X | 2 | 0 | 13.9 | 9.3 | 18.4 | inactive |
| ALDH2 | 1 | 0 | -2.2 | -3.5 | -1 | inactive |
| ZKSCAN7 | 1 | 0 | 7.9 | 5.9 | 9.9 | inactive |
| LOC347424 | 1 | 0 | -5.6 | -2.4 | -8.8 | inactive |
| FOXA1 | 1 | 0 | 8 | 9.1 | 6.8 | inactive |
| OR2T1 | 1 | 1 | 14.2 | 13.6 | 14.7 | inactive |
| HSFX1 | 1 | 0 | -10.7 | -13.1 | -8.2 | inactive |
| LOC440455 | 1 | 0 | 7 | 9.5 | 4.4 | inactive |
| SCP2D1 | 1 | 1 | 3.2 | -5.9 | 12.3 | inactive |
| TSPO2 | 1 | 0 | -3.5 | -19.7 | 12.7 | inactive |
| FAM89A | 1 | 1 | 26.8 | 28.8 | 24.7 | inactive |
| GRIN2B | 1 | 0 | 5.2 | 3.6 | 6.8 | inactive |
| CCDC3 | 1 | -1 | -8.7 | -15.7 | -1.8 | inactive |
| ZBTB8A | 1 | 0 | -1.2 | 1.9 | -4.2 | inactive |
| JAKMIP3 | 1 | 0 | 6.9 | 14.2 | -0.4 | inactive |
| FNBP4 | 1 | 0 | 5.3 | 12.5 | -2 | inactive |
| INSL4 | 1 | -1 | -3.8 | 9.7 | -17.2 | inactive |
| TJP2 | 1 | 0 | 7.7 | 16.3 | -0.8 | inactive |
| H2BC26 | 1 | 0 | 12.5 | 12.4 | 12.6 | inactive |
| MS4A13 | 1 | 0 | 4.9 | 0.2 | 9.7 | inactive |
| DCXR | 1 | 0 | 3 | -2.2 | 8.2 | inactive |
| SCARB1 | 1 | 0 | 4.6 | 0.6 | 8.6 | inactive |
| OR10T2 | 1 | 0 | -6.5 | -4.3 | -8.6 | inactive |
| CBS | 1 | 0 | -1.1 | -9.9 | 7.6 | inactive |
| MYRIP | 1 | 0 | 4.5 | 2.9 | 6 | inactive |
| SLITRK5 | 1 | 0 | 7.6 | 5.3 | 9.8 | inactive |
| MAN2B2 | 1 | 0 | 2.3 | 24.7 | -20.1 | inactive |
| RGMB | 1 | 0 | 6.4 | 7.2 | 5.7 | inactive |
| LOC400647 | 1 | 0 | 0.6 | -9 | 10.3 | inactive |
| PLCH1 | 1 | -1 | -26.2 | -37.9 | -14.5 | inactive |
| KIAA1889 | 1 | 0 | 12.5 | 15 | 10.1 | inactive |
| IKBKG | 1 | 2 | 17.3 | 14.9 | 19.6 | active |
| PAWR | 1 | 0 | 10.2 | 14 | 6.4 | inactive |
| DNAJB4 | 1 | 1 | 8.6 | 12 | 5.2 | inactive |
| DENND4B | 1 | 0 | -4.9 | -0.8 | -8.9 | inactive |
| ETS1 | 1 | 0 | 3.7 | 4.8 | 2.7 | inactive |
| BBOF1 | 1 | 0 | 0 | 6.6 | -6.7 | inactive |
| LOC283155 | 1 | 1 | 7 | 3.3 | 10.8 | inactive |
| KAT2B | 1 | 0 | -2.9 | -10.1 | 4.2 | inactive |
| PPP3CB | 1 | 1 | 7.9 | 13.2 | 2.6 | inactive |
| RND1 | 1 | 0 | 11.3 | 14.8 | 7.8 | inactive |
| LOC150371 | 1 | 0 | 10.7 | 6.7 | 14.7 | inactive |
| LOC442529 | 1 | 0 | 7.5 | 6.2 | 8.8 | inactive |
| DKC1 | 1 | 0 | 3.7 | 8.6 | -1.3 | inactive |
| CHCHD4 | 1 | 0 | 2.2 | 0.1 | 4.3 | inactive |
| SST | 1 | 0 | 7.4 | -4.4 | 19.2 | inactive |
| LOC442140 | 1 | 0 | 3.8 | 8.7 | -1.1 | inactive |
| CIC | 1 | 0 | 6.7 | 7.5 | 5.9 | inactive |
| GINM1 | 1 | -1 | -5.5 | 6.2 | -17.2 | inactive |
| MFN1P1 | 1 | 0 | 6 | 8.9 | 3.2 | inactive |
| BCHE | 1 | 0 | -1.2 | -1.1 | -1.2 | inactive |
| LOC284352 | 1 | 0 | 20.1 | 10.5 | 29.6 | inactive |
| GNB1 | 1 | 0 | -3.5 | -15.5 | 8.5 | inactive |
| TBC1D8B | 1 | 0 | -4.7 | -12.4 | 2.9 | inactive |
| LGR6 | 1 | 0 | 7.5 | 5.1 | 9.9 | inactive |
| SCAMP1 | 1 | 0 | 17.5 | 18.3 | 16.6 | inactive |
| CFAP418 | 1 | 0 | 2.1 | 6.1 | -1.9 | inactive |
| DIP2A | 1 | 0 | 7.5 | 13.6 | 1.3 | inactive |
| MTFR1L | 1 | 0 | 8.9 | 34.3 | -16.5 | inactive |
| LOC387871 | 1 | 1 | 20.7 | 17.6 | 23.8 | inactive |
